# The other results are listed elsewhere or left out.
# Experiments:
# Test in all cases: protein microarray (ProtoArray v5.0), streptavidin-Alexa Fluor 647
# Conditions in all cases: 3'-biotin; 20 mM Tris (pH 7.5), 5 mM MgCl2, 100 mM KCl, 0.1% Tween-20, A/T-rich and random oligonucleotide blockers; temperature not stated; high values mean tight binding
# [1] = tested on: Lactation elevated protein 1 (human)
# [2] = tested on: Lactoylglutathione lyase (human)
# [3] = tested on: Leptin receptor gene-related protein (human)
# [4] = tested on: Leucine carboxyl methyltransferase 1 (human)
# [5] = tested on: Leucine-rich repeat and fibronectin type-III domain-containing protein 4 (human)
# [6] = tested on: Leucine-rich repeat serine/threonine-protein kinase 1 (human)
# [7] = tested on: Leucine-rich repeat-containing protein 61 (human)
# [8] = tested on: Leukemia-associated protein 1 (human)
# [9] = tested on: Leukocyte common antigen (human)
# [10] = tested on: Leukocyte tyrosine kinase receptor (human)
sequence,measurement,setting,value
GGGAGGCTGAGGCAGG [G4-1 biotinylated (PQS2)],binding signal,[1],-0.334 z-score
same,binding signal,[2],-0.33 z-score
same,binding signal,[3],-0.344 z-score
same,binding signal,[4],-0.342 z-score
same,binding signal,[5],-0.296 z-score
same,binding signal,[6],-0.324 z-score
same,binding signal,[7],-0.311 z-score
same,binding signal,[8],-0.304 z-score
same,binding signal,[9],-0.326 z-score
same,binding signal,[10],-0.25 z-score

# 2 neighbouring entries from above, for reference:
sequence,measurement,setting,value
GGGAGGCTGAGGCAGG [G4-1 biotinylated (PQS2)],binding signal,[9],-0.326 z-score
same,binding signal,[10],-0.25 z-score

# Source: publication PMC5996148
